For assay [1], the target named is GFP–liprin-α1 (not stated (human or mouse cDNA cloned)) (UniProt Q13136). Description: co-IP; lysates of MIN6 cells overexpressing GFP–liprin-α1 or GFP (control); anti-GFP nanobody beads (GFP-Trap); immunoprecipitates analysed by immunoblotting.
Assay [2] addresses endogenous liprin-α1 (mouse (endogenous in MIN6)) (UniProt B2RXQ2). The experiment in a line: co-IP; uninfected MIN6 cells, 16.7 mM glucose 2 h; clarified lysates (4 mg per IP) with 10 μg anti–liprin-α1, anti–β2-syntrophin or control IgG overnight at 4°C, protein A/G magnetic beads; immunoblotting.

Sequences of proteins named here, by UniProt entry; tags and fusion partners are left off.
UniProt Q13136: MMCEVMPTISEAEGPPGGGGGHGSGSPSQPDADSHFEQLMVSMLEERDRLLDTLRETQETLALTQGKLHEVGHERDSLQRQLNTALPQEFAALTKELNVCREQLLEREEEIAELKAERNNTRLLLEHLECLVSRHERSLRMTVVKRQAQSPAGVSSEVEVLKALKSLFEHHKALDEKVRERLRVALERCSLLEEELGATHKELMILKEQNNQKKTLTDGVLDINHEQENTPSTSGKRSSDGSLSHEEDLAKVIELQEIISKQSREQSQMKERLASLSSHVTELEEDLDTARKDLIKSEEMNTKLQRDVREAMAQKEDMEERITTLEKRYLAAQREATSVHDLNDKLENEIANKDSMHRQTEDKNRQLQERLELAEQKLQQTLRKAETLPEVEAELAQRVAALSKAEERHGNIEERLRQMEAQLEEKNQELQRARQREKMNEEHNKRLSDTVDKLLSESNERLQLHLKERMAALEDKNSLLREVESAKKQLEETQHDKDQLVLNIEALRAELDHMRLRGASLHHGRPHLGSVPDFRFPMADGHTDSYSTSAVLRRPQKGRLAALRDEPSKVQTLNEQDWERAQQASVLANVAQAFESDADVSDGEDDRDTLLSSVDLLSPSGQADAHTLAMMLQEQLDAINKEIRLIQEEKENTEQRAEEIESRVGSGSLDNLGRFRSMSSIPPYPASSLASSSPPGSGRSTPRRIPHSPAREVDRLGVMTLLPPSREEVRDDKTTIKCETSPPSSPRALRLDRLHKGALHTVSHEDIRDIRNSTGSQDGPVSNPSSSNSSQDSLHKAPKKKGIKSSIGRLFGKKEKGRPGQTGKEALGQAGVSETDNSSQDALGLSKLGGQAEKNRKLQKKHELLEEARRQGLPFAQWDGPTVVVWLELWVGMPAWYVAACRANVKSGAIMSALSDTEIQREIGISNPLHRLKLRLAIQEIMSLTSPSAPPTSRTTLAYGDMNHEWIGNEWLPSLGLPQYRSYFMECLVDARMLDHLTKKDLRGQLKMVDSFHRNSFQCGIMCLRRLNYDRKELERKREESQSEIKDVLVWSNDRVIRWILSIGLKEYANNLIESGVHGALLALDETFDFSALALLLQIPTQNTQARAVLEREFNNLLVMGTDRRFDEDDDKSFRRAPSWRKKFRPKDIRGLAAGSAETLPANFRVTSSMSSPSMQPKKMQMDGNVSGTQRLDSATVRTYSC
UniProt B2RXQ2: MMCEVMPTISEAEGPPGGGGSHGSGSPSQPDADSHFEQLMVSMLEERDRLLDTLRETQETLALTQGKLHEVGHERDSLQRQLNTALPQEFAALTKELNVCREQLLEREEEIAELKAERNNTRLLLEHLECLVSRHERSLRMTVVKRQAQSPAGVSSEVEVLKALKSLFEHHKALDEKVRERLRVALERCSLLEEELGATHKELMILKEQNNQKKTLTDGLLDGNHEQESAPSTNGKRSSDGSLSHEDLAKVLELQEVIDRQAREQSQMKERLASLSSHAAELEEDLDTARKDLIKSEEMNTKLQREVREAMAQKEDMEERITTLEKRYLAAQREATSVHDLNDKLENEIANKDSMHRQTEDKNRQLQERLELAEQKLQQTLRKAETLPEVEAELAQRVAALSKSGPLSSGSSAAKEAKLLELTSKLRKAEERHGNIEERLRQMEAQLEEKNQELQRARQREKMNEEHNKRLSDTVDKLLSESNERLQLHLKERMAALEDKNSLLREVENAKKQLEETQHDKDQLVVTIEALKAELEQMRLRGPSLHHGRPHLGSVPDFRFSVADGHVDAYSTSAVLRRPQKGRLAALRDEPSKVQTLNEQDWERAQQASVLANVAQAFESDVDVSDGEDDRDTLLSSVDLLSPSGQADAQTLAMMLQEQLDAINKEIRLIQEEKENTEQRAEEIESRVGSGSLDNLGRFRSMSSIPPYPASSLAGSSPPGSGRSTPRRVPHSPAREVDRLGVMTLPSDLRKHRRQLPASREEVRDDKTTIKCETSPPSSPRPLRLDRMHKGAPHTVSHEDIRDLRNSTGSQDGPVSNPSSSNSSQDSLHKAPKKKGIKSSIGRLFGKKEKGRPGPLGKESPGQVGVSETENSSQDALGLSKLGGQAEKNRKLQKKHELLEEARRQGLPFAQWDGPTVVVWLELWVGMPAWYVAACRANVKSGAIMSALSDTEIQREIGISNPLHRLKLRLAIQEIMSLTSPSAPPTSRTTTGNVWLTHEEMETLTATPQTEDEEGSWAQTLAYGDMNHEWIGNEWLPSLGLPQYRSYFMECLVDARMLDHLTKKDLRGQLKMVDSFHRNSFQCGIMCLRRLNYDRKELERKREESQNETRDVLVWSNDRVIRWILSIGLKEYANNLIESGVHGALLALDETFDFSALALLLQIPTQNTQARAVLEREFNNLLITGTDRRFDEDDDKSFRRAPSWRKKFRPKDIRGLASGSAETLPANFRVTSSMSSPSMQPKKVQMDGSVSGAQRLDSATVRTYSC

These are yes or no findings as the source states them, for the method shown. Binding seen in cells or lysates may run through a third protein. Some binding calls cover weakened binding; strength is not graded here.

As to “endogenous liprin-α1 (from UniProt B2RXQ2 1-1266)”, the binding result in assay [1] is on record as “binds”.

B1: liprin-β1 (protein, UniProt Q8C8U0 1-969)
chain: MMSDASDMLAAALEQMDGIIAGSKALEYSNGIFDCQSPTSPFMGSLRALHLVEDLRGLLEMMETDEKEGLRCQIPDSTAEVLIEWLQNQMTNGHLPGNGDVYQERLARLENDKESLVLQVSVLTDQVEAQGEKIRDLEFCLEEHREKLNATEEMLQQELLSRTSLETQKLELMAEISNLKLKLTAVEKDRLDYEDRFRDTEGLIQEINDLRLKVNEMDGERLQYEKKLKSTKDELASLKEQLEEKECEVKRLQERLVCKAKGEGIEVLDRDIEVQKMKKAVESLMAANEEKERKIEDLRQCLSRYRKMQDPAVLAQGQDSECEGLFHSSSISTLLDAQGFSDLERSTSSTPGMGSPSRDLLHTSAPEEFHTSVLQASIPSLLPPSVDVDTCEKPKLPTKPETSFEEGDGRAILGAAAEVSLSDGVSTSSLQKSSSLGNLKKEASDGTDKAPTDSRTFGTLPPKVPGHEASVDDNPFGTRKARSSFGRGFFKIKSGKRTASAPNLAETEKETAEHLNLAGTSRSKGSQGTSPFPMSPPSPDSRKKSRGIMRLFGKLRRSQSTTFNPDDMSEPEFKRGGTRATAGPRLGWSRDLGQSNSDLDMPFAKWTKEQVCSWLAEQGLGSYLSSGKHWIISGQTLLQASQQDLEKELGIKHSLHRKKLQLALQALGSEEETNYGKLDFNWVTRWLDDIGLPQYKTQFDEGRVDGRMLHYMTVDDLLSLKVVSVLHHLSIKRAIQVLRINNFEPNCLRRRPSDENSITPSEVQQWTNHRVMEWLRSVDLAEYAPNLRGSGVHGGLMVLEPRFNVETMAQLLNIPPNKTLLRRHLATHFNLLIGAEAQHQKRDAMELPDYVLLTATAKVKPKKLTFSNFGNLRKKKHEDGEEYVCPMELGQASGSSQKGFRPGLDMRLYEEDDLDRLEQMEDSEGTVRQIGAFSEGINNLTHMLKEDDMFKDFAARSPSASITDEDSNV
Take B1: the binding result in assay [2] and in assay [1] was “binds” throughout.

(Values after PMC12393827.)
